# PubChem BioAssay AID652243 | Drosophila RNAi Screening Center | 2013
# Test: 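Knock-downs that decrease or increase androgen receptor reporter signal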 (primary screen)
# Cell system: Drosophila S2R+ cells
# Reagent: long dsRNA against Drosophila genes
# Duration: 72 h (48 h, then 24 h hormone)
# Challenge: synthetic androgen R1881 at 10 nM for 24 h
# Measured: 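Firefly light from an androgen-responsive reporter and Renilla control light per well, raw and unnormalised, for each of two replicates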
# Reading the numbers: firefly reporter light: higher = more light from androgen-responsive reporter; Renilla control light: higher = more constitutive control signal (cell number, transfection)
# Hit rule: 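Hit when the log firefly-to-Renilla ratio dropped or increased by a fixed fold versus the mean of GFP or LacZ controls across duplicate plates; lowering cut given as 1.5 and as 3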
# Meaning of the calls: active = hit: reporter lowered or raised; inactive = no hit
# The deposit covers about 24,000 reagents; below is a random part of those that have a named target and a result. In the full data, 246 (1%) got an active call. 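Plates not normalised; calls are printed but the firefly/Renilla ratio behind them is not deposited; fold cut for lowering reported inconsistently.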 Raw values vary from plate to plate and are shown uncorrected. Reagents against one gene are numbered here. Names joined by + are all predicted targets of the reagent. The record does not give: the amount of reagent.
The opening 5 entries, to show the layout:
predicted target,reagent no.,"firefly reporter light, replicate 1","firefly reporter light, replicate 2","Renilla control light, replicate 1","Renilla control light, replicate 2",activity call
CG6055,1,2.85e5,3.32e5,2.47e6,1.73e6,inactive
Pepck1,1,1.47e5,1.90e5,3.55e6,2.48e6,inactive
Pepck1,2,2.62e5,2.36e5,6.81e5,5.58e5,inactive
betaNACtes2,1,4.74e5,3.40e5,2.96e6,3.57e6,inactive
ptc,1,1.44e5,2.16e5,5.54e5,6.15e5,inactive

Results, from the first entry:
predicted target,reagent no.,"firefly reporter light, replicate 1","firefly reporter light, replicate 2","Renilla control light, replicate 1","Renilla control light, replicate 2",activity call
CG6055,1,2.85e5,3.32e5,2.47e6,1.73e6,inactive
Pepck1,1,1.47e5,1.90e5,3.55e6,2.48e6,inactive
Pepck1,2,2.62e5,2.36e5,6.81e5,5.58e5,inactive
betaNACtes2,1,4.74e5,3.40e5,2.96e6,3.57e6,inactive
ptc,1,1.44e5,2.16e5,5.54e5,6.15e5,inactive
ptc,2,4.33e5,3.65e5,1.84e6,1.96e6,inactive
CG32772,1,67083,1.02e5,8.48e5,5.87e5,inactive
CG32772,2,6.96e5,6.62e5,7.24e5,6.62e5,inactive
Nil,1,1.94e5,2.45e5,3.34e6,3.43e6,inactive
Nil,2,7.08e5,8.16e5,1.76e6,1.82e6,inactive
Nil,3,,,,,inactive
CG2126,1,2.63e5,2.44e5,2.09e6,2.39e6,inactive
CG9775,1,95012,69852,8.88e5,7.55e5,inactive
CG9775,2,1.53e5,1.76e5,1.13e6,7.00e5,inactive
CG13654,1,1.74e5,1.46e5,2.24e6,3.08e6,inactive
CG14316,1,53522,1.07e5,8.55e5,9.75e5,inactive
CG13838,1,1.77e5,1.85e5,2.35e6,1.79e6,inactive
CG13838,2,6.98e5,5.91e5,1.74e6,1.37e6,inactive
Mst36Fa,1,7.59e5,6.24e5,3.30e6,2.63e6,inactive
Mst36Fa,2,5.80e5,4.99e5,6.90e5,7.78e5,inactive
CG14327,1,2.14e5,2.05e5,2.58e6,2.56e6,inactive
AdipoR,1,71660,1.04e5,8.50e5,8.68e5,inactive
MED28,1,1.68e5,1.93e5,2.88e6,2.26e6,inactive
CG6891,1,1.20e5,1.15e5,9.20e5,1.08e6,inactive
CG6891,2,2.19e5,2.78e5,6.36e5,6.51e5,inactive
CG8298,1,4.02e5,3.16e5,1.80e6,1.80e6,inactive
CG8298,2,,,,,inactive
CG8298,3,,,,,inactive
Dph1,1,4.82e5,4.36e5,1.00e6,1.22e6,inactive
Hsp70Bb + Hsp70Ba + Hsp70Bc + 1 more,1,88763,71248,3.06e5,2.24e5,inactive
Hsp70Bb + Hsp70Ba + Hsp70Bc + 1 more,2,97065,1.05e5,2.70e5,1.92e5,inactive
RpL29,1,2.85e5,2.54e5,1.81e6,1.66e6,inactive
ouib,1,1.50e5,1.19e5,1.94e6,2.07e6,inactive
Gnptab,1,4.20e5,2.61e5,1.88e6,1.50e6,inactive
CG8119 + asRNA:CR43299,1,3.11e5,2.68e5,6.38e5,6.38e5,inactive
Creld,1,63900,51643,5.43e5,4.28e5,inactive
Creld,2,3.80e5,4.66e5,1.21e6,1.21e6,inactive
Edg91,1,82654,23707,1.36e6,5.38e5,inactive
wuho,1,1.98e5,3.34e5,2.77e6,3.42e6,inactive
wuho,2,7.60e5,4.81e5,3.25e6,1.62e6,inactive
CG17159 + CG17162,1,2.72e5,2.73e5,5.08e5,4.61e5,inactive
CG17159 + CG17162,2,1.40e5,1.70e5,2.80e5,2.80e5,inactive
CG7523,1,1.48e5,44762,8.93e5,4.67e5,inactive
lute,1,1.63e5,1.72e5,2.29e6,2.63e6,inactive
lute,2,1.03e5,81134,5.62e5,6.43e5,inactive
lute,3,4.81e5,6.38e5,9.10e5,7.58e5,inactive
lute,4,4.72e5,3.26e5,76128,27049,inactive
Cpr51A,1,1.46e5,1.40e5,1.55e6,1.55e6,inactive
Ance-4,1,2.82e5,1.84e5,2.29e6,1.44e6,inactive
Imp,1,1.73e6,1.04e6,1.71e6,8.71e5,inactive
Imp,2,90601,1.16e5,7.05e5,6.57e5,inactive
Imp,3,8.19e5,6.77e5,2.19e5,1.83e5,inactive
CG10137,1,7.87e5,7.26e5,1.23e6,1.06e6,inactive
CG10137,2,99471,79895,1.10e6,8.85e5,inactive
CG10137,3,3.96e5,3.41e5,6.20e5,3.51e5,inactive
Cyp6a21,1,1.55e5,1.64e5,2.97e6,2.97e6,inactive
Atf-2 + veg (retired record),1,8.58e5,9.77e5,1.22e6,1.32e6,inactive
Atf-2 + veg (retired record),2,3.19e5,3.76e5,2.76e6,3.74e6,inactive
